Read-outs that look alike come from different tables or passages of the source.

In this assay the target is T1, pyrene-labeled F-actin (PFA) (Oryctolagus cuniculus, UniProt P68135).
T1 construct: Rabbit skeletal F-actin was prepared as described previously from acetone powder; from tissue; host or cells: rabbit skeletal muscle (acetone powder)
The assay can be described thus: Compound binding to pyrene-labeled F-actin, steady-state fluorescence dose response. The settings on record: 2 μM PFA. Set-up: species or system rabbit.

[1] abbreviates: no MgATP, fits to the Hill equation, read-out: apparent dissociation equilibrium constant, Kd, of compound binding to PFA.

Regarding `CSc1ccc2c(c1)N(CCC1CCCCN1C)c1ccccc1S2` (stereo not drawn) [Thi], the Kd under setting [1] is 40 ± 10 µM.

As to `OCCN1CCN(CCCN2c3ccccc3Sc3ccc(C(F)(F)F)cc32)CC1` [Flp], the Kd is, setting by setting: (200-500 μM MgATP, read-out: Kd of compound binding to PFA in the presence of MgATP) 25.8 ± 4.2 µM; under setting [1], 16.8 ± 2.8 µM.

The values are drawn from paper PMC8063737 (The Journal of Biological Chemistry, 2021).
